The record followed here is PubChem BioAssay.

This is one part of the list. Further columns of the screen follow, without active or inactive calls.

A short description of this assay: protection against mutant huntingtin cytotoxicity, PC12 cells, LDH release (AID 1610). To be noted: PC12 mutant huntingtin toxicity, final LDH at 4 uM, stronger effect = lower value. In general terms: LDH in the medium is a marker of cell lysis.
As to `C=C[C@H]1CN2CC[C@H]1C[C@@H]2[C@H](O)c1ccnc2ccc(OC)cc12`, the normalised LDH release came to 0.866.

For the compound `COC(=O)C1=C(C)NC(C)=C(C(=O)OCCN(C)Cc2ccccc2)C1c1cccc([N+](=O)[O-])c1` (centres undefined), the normalised LDH release turned out to be 0.693.

`CN(C)CCN(Cc1ccccc1)c1ccccn1` had a normalised LDH release of 0.175.

For `O=C(CCBr)N1CCN(C(=O)CCBr)CC1`, the normalised LDH release was 0.712.

The compound `C=CCc1ccccc1OCC(O)CNC(C)C` (centres undefined) had a normalised LDH release of 0.311.

`CCN(CC)CCOc1ccc2c(c1)C(=O)c1cc(OCCN(CC)CC)ccc1-2` yielded a normalised LDH release of 0.915.

For the compound `CC(=O)OCC(=O)[C@@]1(O)CCC2C3CCC4=CC(=O)CC[C@]4(C)C3[C@@H](O)C[C@@]21C` (some centres undefined), the normalised LDH release came to 0.409.

`C[N+](C)(C)CC(O)CC(=O)O` (centres undefined) showed a normalised LDH release of 0.985.

Consider `CC1=NN(c2ccccc2)C(=O)C1`, for which the normalised LDH release was found to be 1.08.

The compound `CC(=O)O[C@]1(C(C)=O)CCC2C3C=C(Cl)C4=CC(=O)[C@@H]5C[C@@H]5[C@]4(C)C3CC[C@@]21C` (some centres undefined) yielded a normalised LDH release of 0.723.

With `COc1ccc(-c2cc(=O)c3c(O)cc(O)cc3o2)cc1`, the normalised LDH release was 0.862.

Compound `Clc1ccc2c(c1)C(N1CCNCC1)=Nc1ccccc1O2` had a normalised LDH release of 0.421.

Consider `CCCCOc1ccc(CC(=O)NO)cc1`, for which the normalised LDH release was determined as 0.893.

The compound `CN1CCC[C@H]1c1cccnc1` came in with a normalised LDH release of 0.94.

In turn, `CC1=C(C(=O)O)N2C(=O)[C@@H](NC(=O)[C@H](N)C3=CCC=CC3)[C@H]2SC1` registered a normalised LDH release of 0.968.

The compound `NC(=O)c1ccc([N+](=O)[O-])cc1Cl` gave a normalised LDH release of 0.951.

In turn, `NCCSSCCN` gave a normalised LDH release of 0.797.

As to `CC1(C)S[C@@H]2[C@H](NC(=O)[C@H](NC(=O)N3CCNC3=O)c3ccccc3)C(=O)N2C1C(=O)O` (some centres undefined), the normalised LDH release is 1.1.

Compound `CN1Cc2c(N)cccc2C(c2ccccc2)C1` (centres undefined) came in with a normalised LDH release of 0.574.

`C=CCSCC1Nc2cc(Cl)c(S(N)(=O)=O)cc2S(=O)(=O)N1` (centres undefined): the normalised LDH release was found to be 0.909.

Compound `CC(C)[C@@H]1CC[C@@H](C)C[C@H]1O` registered a normalised LDH release of 0.688.

As for `CN(C)CCC=C1c2ccccc2CCc2ccccc21`, the normalised LDH release is 1.03.

Take `NCC[C@@H](O)C(=O)N[C@@H]1C[C@H](N)[C@@H](O[C@H]2O[C@H](CN)[C@@H](O)[C@H](O)[C@H]2O)[C@H](O)[C@H]1O[C@H]1O[C@H](CO)[C@@H](O)[C@H](N)C1O` (some centres undefined): the normalised LDH release is 0.455.

`CC(=O)NC(Cc1ccccc1)C(=O)O` (centres undefined): the normalised LDH release is 0.882.

For the compound `O=C(O)c1ccccc1OP(=O)(O)O`, the normalised LDH release came out at 0.866.

On to `CCCC1O[C@@H]2CC3C4CCC5=CC(=O)C=CC5(C)C4[C@@H](O)CC3(C)[C@]2(C(=O)CO)O1` (some centres undefined), for which the normalised LDH release was 0.182.

`O=c1cc(-c2ccccc2)oc2cc(O)cc(O)c12` gave a normalised LDH release of 0.748.

As for `Oc1cccc(O)c1`, the normalised LDH release is 0.658.

`CNCCCN1c2ccccc2CCc2ccccc21` yielded a normalised LDH release of 0.705.

Consider `Clc1ccccc1C(c1ccccc1)(c1ccccc1)n1ccnc1`, for which the normalised LDH release came to 1.25.

The compound `OC(CCN1CCCCC1)(c1ccccc1)C1CCCCC1` (centres undefined) yielded a normalised LDH release of 0.569.

Turning to `CN1C2CCC1CC(OC(=O)C(CO)c1ccccc1)C2` (centres undefined), the normalised LDH release came to 1.35.

In the case of `Nc1ccc(S(=O)(=O)Nc2ccccn2)cc1`, the normalised LDH release worked out at 1.11.

The compound `Cc1cc(NC(=O)C2=C(O)c3ccccc3S(=O)(=O)N2C)no1` gave a normalised LDH release of 0.643.

Turning to `Nc1ccc(N=Nc2ccccc2)c(N)n1`, the normalised LDH release was determined as 1.08.

The compound `CC(=O)OCC(=O)[C@@]1(O)CCC2C3CCC4=CC(=O)CC[C@]4(C)C3C(=O)C[C@@]21C` (some centres undefined) had a normalised LDH release of 1.13.

In turn, `CCCCCCCCNC(C)C(O)c1ccc(SC(C)C)cc1` (centres undefined) yielded a normalised LDH release of 0.794.

Take `CC(=O)OCC1=C(C(=O)O)N2C(=O)[C@@H](NC(=O)CSc3ccncc3)[C@H]2SC1`: the normalised LDH release was 0.987.

In the case of `Cc1ccnc(NS(=O)(=O)c2ccc(N)cc2)n1`, the normalised LDH release was 1.03.
